Data as given in PMC10369244.
Results are given in words; binding and its absence hold for the method and conditions named. Binding seen in cells or lysates may run through a third protein. Some entries that bind do so weakly or less than the wild type.

By UniProt entry, the sequences of proteins in these tests, tags left out. Residues count along the entry.
UniProt P46531, residues 1754-2555: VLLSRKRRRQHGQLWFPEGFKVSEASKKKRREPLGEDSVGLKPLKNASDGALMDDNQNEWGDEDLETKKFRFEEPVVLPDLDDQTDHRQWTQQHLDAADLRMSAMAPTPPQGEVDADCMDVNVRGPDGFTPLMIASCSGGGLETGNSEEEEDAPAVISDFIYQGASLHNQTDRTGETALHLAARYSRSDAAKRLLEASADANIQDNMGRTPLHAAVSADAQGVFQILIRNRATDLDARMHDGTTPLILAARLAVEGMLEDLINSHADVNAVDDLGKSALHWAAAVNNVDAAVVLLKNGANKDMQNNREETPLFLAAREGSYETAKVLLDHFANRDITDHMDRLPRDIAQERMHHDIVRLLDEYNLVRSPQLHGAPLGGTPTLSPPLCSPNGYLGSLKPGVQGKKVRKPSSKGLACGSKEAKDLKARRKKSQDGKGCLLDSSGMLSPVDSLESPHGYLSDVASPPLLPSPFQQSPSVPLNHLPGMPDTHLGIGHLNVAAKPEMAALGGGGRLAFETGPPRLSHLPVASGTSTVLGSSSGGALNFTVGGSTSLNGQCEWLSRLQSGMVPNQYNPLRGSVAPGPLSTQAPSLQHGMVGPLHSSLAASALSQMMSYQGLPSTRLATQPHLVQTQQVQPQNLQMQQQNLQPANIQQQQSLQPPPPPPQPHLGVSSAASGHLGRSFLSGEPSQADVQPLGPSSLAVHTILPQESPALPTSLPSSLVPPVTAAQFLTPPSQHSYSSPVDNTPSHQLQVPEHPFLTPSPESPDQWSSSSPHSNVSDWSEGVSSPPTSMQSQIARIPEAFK

What was measured:
[1] = target: Notch1 intracellular domain (NICD1), endogenous (human (endogenous in LUAD cells)) (UniProt P46531); test: co-IP; MCM5 with endogenous NICD1 in LUAD cells; bait not stated
[2] = target: Notch1 intracellular domain (NICD1), endogenous (human (endogenous in LUAD cells)) (UniProt P46531); test: proximity ligation; DuoLink In Situ Fluorescence on fixed LUAD cells; primary antibodies to MCM5 and cleaved-Notch1

binding [1]: binds
binding [2]: binds
B1: minichromosome maintenance complex component 5 (MCM5), in cells (protein, UniProt P33992 1-734)
chain: MSGFDDPGIFYSDSFGGDAQADEGQARKSQLQRRFKEFLRQYRVGTDRTGFTFKYRDELKRHYNLGEYWIEVEMEDLASFDEDLADYLYKQPAEHLQLLEEAAKEVADEVTRPRPSGEEVLQDIQVMLKSDASPSSIRSLKSDMMSHLVKIPGIIIAASAVRAKATRISIQCRSCRNTLTNIAMRPGLEGYALPRKCNTDQAGRPKCPLDPYFIMPDKCKCVDFQTLKLQELPDAVPHGEMPRHMQLYCDRYLCDKVVPGNRVTIMGIYSIKKFGLTTSRGRDRVGVGIRSSYIRVLGIQVDTDGSGRSFAGAVSPQEEEEFRRLAALPNVYEVISKSIAPSIFGGTDMKKAIACLLFGGSRKRLPDGLTRRGDINLLMLGDPGTAKSQLLKFVEKCSPIGVYTSGKGSSAAGLTASVMRDPSSRNFIMEGGAMVLADGGVVCIDEFDKMREDDRVAIHEAMEQQTISIAKAGITTTLNSRCSVLAAANSVFGRWDETKGEDNIDFMPTILSRFDMIFIVKDEHNEERDVMLAKHVITLHVSALTQTQAVEGEIDLAKLKKFIAYCRVKCGPRLSAEAAEKLKNRYIIMRSGARQHERDSDRRSSIPITVRQLEAIVRIAEALSKMKLQPFATEADVEEALRLFQVSTLDAALSGTLSGVEGFTSQEDQEMLSRIEKQLKRRFAIGSQVSEHSIIKDFTKQKYPEHAIHKVLQLMLRRGEIQHRMQRKVLYRLK
